Measured values as given in PubChem BioAssay AID2551 (National Center for Advancing Translational Sciences (NCATS), 2010).
Several values for one entry are separate records, joined by “and”; a condition that tells them apart may be missing. Identical values can stand only once. In all, about 310,000 compounds went through this assay and about 17,000 (5.5%) were called active. This list was built around the results that the source calls inconclusive (neither active nor inactive); the mix of calls is not that of the screen. The call rests on the fitted dose curve; in most records, active means well fitted inhibition curve with a large enough effect; inconclusive means small, poorly fitted or top-dose-only effect, or effect the other way; inactive means no such curve, though single readings can be large or run the other way. Where the call is inconclusive, the potency comes from a doubtful curve fit.

The chains behind the UniProt entries cited, without tags or fusion partners. Where a name states a change or a piece, a line headed by the entry shows the natural chain unless it says otherwise.
UniProt P51450: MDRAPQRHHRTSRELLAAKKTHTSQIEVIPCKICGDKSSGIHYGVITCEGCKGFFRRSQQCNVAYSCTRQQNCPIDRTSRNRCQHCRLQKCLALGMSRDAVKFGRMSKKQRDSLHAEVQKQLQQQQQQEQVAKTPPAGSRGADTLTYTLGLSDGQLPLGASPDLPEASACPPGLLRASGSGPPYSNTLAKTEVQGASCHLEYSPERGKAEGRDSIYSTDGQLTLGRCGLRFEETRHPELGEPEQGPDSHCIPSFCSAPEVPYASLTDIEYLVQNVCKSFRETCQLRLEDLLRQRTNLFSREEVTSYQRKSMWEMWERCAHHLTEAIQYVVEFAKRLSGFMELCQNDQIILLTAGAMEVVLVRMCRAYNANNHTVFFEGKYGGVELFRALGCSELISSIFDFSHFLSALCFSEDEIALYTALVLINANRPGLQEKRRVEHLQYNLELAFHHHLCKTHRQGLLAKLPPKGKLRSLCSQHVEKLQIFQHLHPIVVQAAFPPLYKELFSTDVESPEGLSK

These compounds were tested against Nuclear receptor ROR-gamma (Mus musculus) (UniProt P51450) (assay: qHTS for inhibitors of ROR gamma transcriptional activity). Conditions: Drosophila S2 Gal4-RORgamma UAS-luciferase reporter, 20 h; series mostly up to 53.6 µM.
Procedure, shortened: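 Using a luciferase readout, inhibitors were identified by reduced reporter activity in Drosophila cells coexpressing a copper-inducible Gal4–ROR gamma fusion and UAS-driven Photinus luciferase, incubated 20 hr after 700 uM copper sulfate.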
Further: nearly all actives have a fitted effect of over 60% in size.
Potency means the concentration at half of the fitted maximal effect.

SMILES | Potency
Cc1cc(C)c(-c2csc(NC(=O)c3n[nH]c(=O)c4ccccc34)n2)c(C)c1 | inconclusive: 2.24 µM [activator, full curve]
Cc1ccc(Cc2nnc3n(-c4cccc(C)c4)nc(C(=O)c4ccccc4)n3c2=O)cc1 | inconclusive: 8.91 µM [activator, partial curve, poor fit]
COc1ccc(/C=N/NC(=O)c2ccncc2)cc1CN1CCCc2ccccc21 | active: 11.2 µM
Cc1ccccc1N=Cc1c(O)n(-c2nccs2)c(=O)c2ccccc12 | inactive
CCOC(=O)Cn1c(=O)oc2cc(S(=O)(=O)NCCc3ccc(C)cc3)ccc21 | inconclusive: 35.5 µM [activator, single point]
Cc1ccc(C(=O)N2CCN(C)CC2)cc1S(=O)(=O)N1CCCCCC1 | inactive
C1CCN=C(Nc2nc3c(s2)CCCC3)CC1 | inconclusive: 0.282 µM [activator, full curve]
Cc1cc(NC(=O)c2c(C)noc2C)no1 | inactive
Cc1nn(C)c(C)c1N1C(=O)c2cccc3c(Br)ccc(c23)C1=O | inconclusive: 1.41 µM [inhibitor, partial curve]
O=C(NCCc1ccccc1)c1c(F)cccc1F | inconclusive: 3.16 µM [inhibitor, single point]
O=C(CN1C2=NCCCN2c2ccccc21)c1ccc([N+](=O)[O-])cc1 | inactive
O=[N+]([O-])c1cccc2c(N3CCCC3)ccnc12 | inactive
Cc1ccc(S(=O)(=O)N(C)C)cc1NC(=O)c1cccnc1Oc1ccccc1 | inconclusive: 35.5 µM [activator, single point]
CC(=O)c1ccc(OC(=O)CCN2c3ccccc3Sc3ccccc32)cc1 | inconclusive: 15.8 µM [activator, partial curve]
COCc1cc(OC)nc(-c2csc(C)n2)n1 | active: 11.2 µM
O=C(CC1C(=O)NCCN1Cc1c(F)cccc1Cl)NCCCOc1cccnc1 (centres undefined) | inactive
COc1ccccc1N1C(=O)CC1(C#N)c1ccc(OCc2ccccc2)cc1 (centres undefined) | inconclusive: 35.5 µM [activator, single point]
CSc1cc(-c2ccc(Cl)cc2)c(C(=O)NN)s1 | active: 11.2 µM
Cc1[nH]c2ccccc2c1/C=N/Nc1nc2ccccc2[nH]1 | inactive
CCn1ccnc1CN(C)Cc1nc(-c2ccccc2)no1 | inconclusive: 35.5 µM [inhibitor, single point]
CN1C/C(=C/c2cccs2)C(=O)/C(=C\c2cccs2)C1 | inconclusive: 35.5 µM [inhibitor, single point]
Cn1c(O)c(N=NC(=O)c2cc(-c3cccs3)nc3ccccc23)c2ccccc21 | inconclusive: 20 µM [inhibitor, single point]
Cc1cc(C)n2nc(-c3ccc(Br)cc3)cc2n1 | inconclusive: 8.91 µM [inhibitor, partial curve, poor fit]
COc1ccc(NC(=O)N2CC[C@@]3(CCCN(C(=O)c4csnn4)C3)C2)cc1 | inactive
CCOC(=O)c1ccc(NC(=O)NCc2ccccc2)cc1 | inconclusive: 15.8 µM [activator, single point]

SMILES | Potency
CCN1C(=O)C(CC(=O)Nc2ccc(OC)cc2)N(CCc2ccc(OC)cc2)C1=S (centres undefined) | inconclusive: 35.5 µM [inhibitor, single point]
COc1ccc(S(=O)(=O)N2CCCC(C(=O)NCCC3=CCCCC3)C2)cc1 (centres undefined) | inactive
N/C(=N\N=C\c1ccc(Cl)cc1)N/N=C/c1ccc(Cl)cc1 | active: 14.1 µM
COC(=O)C1=CN(C)C=C(C(=O)OC)C1c1ccsc1 | inactive
CCCCC(CC)CNCc1cccn1CCN1CCOCC1 (centres undefined) | inactive
CC(C)C[C@H](NC(=O)[C@@H]1Cc2c([nH]c3ccccc23)C2c3ccccc3C(=O)N21)C(=O)NCC1CCCO1 (some centres undefined) | inactive
COc1ccc(C(=O)N2CCC(n3c(C)nc4cc(F)ccc43)CC2)cc1 | inconclusive: 20 µM [activator, single point]
Cc1ccc(-c2nn(Cc3ccccc3)cc2/C=C/C(=O)O)cc1 | inconclusive: 11.2 µM [activator, partial curve]
Cc1cc(C(=O)Nc2ccccc2N2CCOCC2)c(C)o1 | inconclusive: 6.31 µM [activator, single point]
COc1ccc([N+](=O)[O-])cc1NC(=O)CC1SC(=Nc2cccc(C)c2C)N(/N=C/c2cccc(OC)c2OC)C1=O (centres undefined) | inactive
COc1ccc(C(=O)NNC(=O)C(=O)NC2CCCCC2)cc1 | inconclusive: 22.4 µM [inhibitor, single point]
Cc1[nH]c2ccccc2c1SCCNC(=O)c1ccc(Br)o1 | inconclusive: 1.78 µM [activator, full curve, poor fit]
COc1ccccc1-n1cc(C(=O)NCC(=O)N2CCN(c3ccccc3)CC2)c2ccccc2c1=O | inconclusive: 14.1 µM [inhibitor, single point]
CN(C(=S)Nc1cccnc1)c1ccc(O)cc1 | inactive
Cc1cccc(NC(=O)CSc2nncn2-c2ccccn2)c1 | inconclusive: 12.6 µM [activator, partial curve, poor fit]
C=CCOc1c(Br)cc(/C=C2\SC(=Nc3ccccc3)NC2=O)cc1OC | inconclusive: 17.8 µM [inhibitor, single point]
Cc1ccccc1OC1C(=O)N(CC2CCCO2)C1c1ccc2c(c1)OCO2 (centres undefined) | inconclusive: 17.8 µM [inhibitor, single point]
O=C(O)c1ccc(COc2ccccc2C=C2C(=O)c3ccccc3C2=O)cc1 | inactive
Cc1cccc(NC(=S)N(CCN(C)C)Cc2cccs2)c1 | active: 11.2 µM
COc1c(-c2coc3cc4c(cc3c2=O)CC(OC(C)=O)C(C)(C)O4)ccc2c1C=CC(C)(C)O2 (centres undefined) | active: 2.51 µM
Cc1cc(C)c2cc3c(N)c(C(=O)N4CCc5ccccc5C4)sc3nc2c1 | inactive
COc1ccc(C(=O)Nc2ccc(C3(C#N)CCCC3)cc2)cc1 | inconclusive: 3.16 µM [inhibitor, full curve, poor fit]
O=C1N=C(N2CCN(c3ccccc3)CC2)S/C1=C/c1cccs1 | inconclusive: 11.2 µM [activator, partial curve]
CCN(CC)c1nc(-c2ccccc2)nc2c1sc(=S)n2CC | inactive
CC(C)c1ccc2oc3nc(N)c(C(=O)O)cc3c(=O)c2c1 | active: 10 µM and active: 7.94 µM

SMILES | Potency
O=[N+]([O-])c1ccc2ncnc(Nc3ccc4c(c3)OCCO4)c2c1 | inconclusive: 35.5 µM [inhibitor, single point]
CCc1nc2c(c(=O)[nH]1)C(CC)(CC)Cc1ccccc1-2 | inconclusive: 0.0251 µM [activator, full curve, poor fit]
CCN1C(=O)C(CC(=O)Nc2ccc(OC)cc2)N(CCc2ccccc2F)C1=S (centres undefined) | inconclusive: 35.5 µM [activator, single point]
COc1ccc2c(c1)C(=O)CCC2c1ccccc1 (centres undefined) | inactive
Oc1c(C=Nc2cccc3nsnc23)ccc2ccccc12 | inconclusive: 2.51 µM [inhibitor, partial curve, poor fit]
CN(Cc1c(C(=O)N(C)Cc2ccccc2)nc2ccccn12)CC1Cc2ccccc2O1 (centres undefined) | inactive
Cc1ccc(C)c(NC(=O)c2ccc(S(=O)(=O)C(F)F)cc2)c1 | inconclusive: 35.5 µM [activator, partial curve, poor fit]
COCCCn1c(SCC(=O)NC(C)C)nnc1-c1ccccc1 | inactive
CCCN(CCC)C(=O)CSc1nc2n[nH]c(C)c2c(=N)n1-c1ccc(OC)cc1 | inconclusive: 22.4 µM [inhibitor, single point]
Cc1sc2nc(SCC(=O)c3cccs3)n(Cc3ccco3)c(=O)c2c1C | inactive
Cc1ccc2nc(-c3ccc(Br)o3)oc(=O)c2c1 | inactive
Nc1c(C(=O)Nc2ccc(S(=O)(=O)N3CCCC3)cc2)sc2nc3cc4c(cc3cc12)CCC4 | inactive
Cc1ccc(S(=O)(=O)NCc2ccc(C(=O)NCCN(Cc3ccccc3)C(C)C)cc2)cc1 | inactive
Cc1ccccc1Oc1ccccc1N | inactive
COc1ccc(NC(=O)Cn2ncc(Cl)c(Cl)c2=O)cc1S(=O)(=O)N1CCOCC1 | inconclusive: 20 µM [inhibitor, single point]
O=C(OCC#CCSc1nnc(-c2ccc(Br)cc2)o1)c1ccco1 | inconclusive: 11.2 µM [inhibitor, partial curve]
CCOC(=O)N1CCN(C(=O)CSc2nc3c(cnn3-c3ccccc3)c(=O)[nH]2)CC1 | inactive
Cc1ccc(OC(C)C(=O)N/N=C/c2ccccn2)cc1 (centres undefined) | inconclusive: 17.8 µM [inhibitor, single point]
COc1cc(/C=N/NC(=O)CCn2cnc(-c3ccccc3)c2-c2ccccc2)ccc1O | inconclusive: 15.8 µM [activator, partial curve]
Cc1cccc(N2CCN(C(=O)C3CCN(c4ncnc5c4nc4n5CCCCC4)CC3)CC2)c1C | inconclusive: 7.08 µM [inhibitor, single point]
CCN(CC)c1ccc(-n2cc3c(=O)n(C)c(=O)n(C)c3c2)cc1 | inactive
O=C1C(Cl)=C(NCC2CCCO2)C(=O)N1CCc1ccccc1 (centres undefined) | inconclusive: 6.31 µM [activator, partial curve]
CCCOC(=O)Nc1nc2ccccc2o1 | active: 14.1 µM
COc1ccc(-c2nnc3ccc(SCC(=O)Nc4nc5ccc(C)cc5s4)nn23)cc1OC | inconclusive: 10 µM [activator, partial curve, poor fit]
